# From PubChem BioAssay AID504467 (National Center for Advancing Translational Sciences (NCATS), 2011)
# Hit rate of the full screen: of about 330,000 compounds, about 7,700 (2.3%) were called active. The shares of active, inactive and inconclusive entries below differ from those in the screen. The call rests on the fitted dose curve; in most records, active means well fitted inhibition curve with a large enough effect; inconclusive means small, poorly fitted or top-dose-only effect, or effect the other way; inactive means flat fitted curve, though single readings scatter. Potencies of inconclusive entries are doubtful fits and often do not repeat.
# Assay: qHTS screen for small molecules that inhibit ELG1-dependent DNA repair in human embryonic kidney (HEK293T) cells expressing luciferase-tagged ELG1; further: nearly all actives have a fitted effect of over 55% in size
# Conditions: HEK293T ELG1-luciferase reporter, luminescence, 16 h, DNA damage induced by 5-fluorouridine; activity change, negative = inhibition: at 46.1 µM (top of the series)
# How it was run: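 Quantitative HTS, concentration-response format. 2,000 cells/well co-treated with 5-fluorouridine and compound, 16 hr in 5% CO2 at 37 °C; ONE-Glo luminescence read after 30 min.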
# On the % scale 0 is the no-effect control and ±100 the full control effect; potency means the concentration at half of the fitted maximal effect.
Structure (SMILES),"activity change, negative = inhibition",Potency
CN(C)S(=O)(=O)c1cc(NC(=O)C[N+]23CCN(CC2)CC3)ccc1Cl,inactive: 1.29%,–
CN1C(=O)C(=Cc2ccccc2OCc2ccc(Cl)cc2)C(=O)N(C)C1=O,–,"inconclusive: 11.6 µM [activator, partial curve]"
Cn1cc(C=C(C#N)C#N)c2ccccc21,inactive: 4.09%,–
CC1=NN(c2ccccc2)C(=O)C1/C=C1\C(=O)NC(=O)N(c2cc(C)cc(C)c2)C1=O (stereo not given),inactive: 9.89%,–
COc1ccc(C)cc1NC(=O)c1c(C)nn(Cc2ccccc2)c1Cl,–,active: 14.6 µM
CNC(C(=O)c1ccccc1)C(OC)c1ccc(C)cc1 (stereo not given),–,"inconclusive: 23.1 µM [activator, partial curve, poor fit]"
CCn1c(O)c(N=Nc2cccc(S(=O)(=O)N3CCOCC3)c2)c(=O)n(CC)c1=S,–,active: 18.3 µM
CC(=O)c1ccc(-c2ccc(Cn3c(C)nc4cc(N)c(C)nc43)cc2)cc1,–,"inconclusive: 23.1 µM [activator, single point]"
COc1ccc(C(=O)C2CN(C)CC2C(=O)c2ccc(OC)cc2)cc1 (stereo not given),–,"inconclusive: 32.6 µM [activator, partial curve, poor fit]"
CN1C(=O)CN=C(c2ccc(Cl)cc2)c2cc(Cl)ccc21,–,"inconclusive: 23.1 µM [activator, single point]"
COC(=O)C1=C(c2ccccc2OCc2ccccc2)C[C@@H]2CC[C@H]1N2C(=O)NCc1cccc(F)c1,–,"inconclusive: 20.6 µM [inhibitor, single point]"
CC(C)c1ccc(NC(=O)N2C[C@H]3C[C@@H](C2)c2cccc(=O)n2C3)cc1,–,"inconclusive: 8.2 µM [activator, single point]"
NCC1(c2ccc3c(c2)OCCO3)CCCC1,inactive: -1.13%,–
COc1cccc(Cn2c(=O)oc3ccccc32)c1,–,"inconclusive: 20.6 µM [activator, partial curve]"
COc1ccc(NC(=O)c2cc([N+](=O)[O-])ccc2N2CCNCC2)cc1,inactive: 7.51%,–
CCOC(=O)C1(CCc2ccccc2)CCN(Cc2ccc3c(c2)OCCO3)CC1,inactive: 5.44%,–
Cc1ccc(C2=NCC(=O)Nc3ccc(Br)cc32)cc1,inactive: 19.2%,–
Cc1ccc(/C=C2/C(=O)NC(=O)N(CC3CCCO3)C2=O)s1 (stereo not given),–,"inconclusive: 18.4 µM [activator, single point]"
O=C1CC(=O)N(c2ccccc2)C(=O)N1c1ccccc1,inactive: 17.6%,–
CCOc1cc(/C=C2\C(=O)NC(=O)N(C)C2=O)cc([N+](=O)[O-])c1O,inactive: -1.16%,–
Cc1ccccc1O,inactive: 1.11%,–
COc1ccc(CNC(=O)c2ccc(C(C)C)cc2)cc1,–,"inconclusive: 14.6 µM [activator, partial curve]"
CCn1c(=O)cc(OCC(=O)N2CCC3(CC2)OCCO3)c2ccccc21,–,"inconclusive: 9.2 µM [activator, partial curve]"

# A second format for some results above.
Structure (SMILES)	activity change, negative = inhibition	Potency
CC(=O)c1ccc(-c2ccc(Cn3c(C)nc4cc(N)c(C)nc43)cc2)cc1	–	inconclusive: 23.1 µM [activator, single point]
COc1ccc(C(=O)C2CN(C)CC2C(=O)c2ccc(OC)cc2)cc1 (stereo not given)	–	inconclusive: 32.6 µM [activator, partial curve, poor fit]

# Remaining list, next part

Structure (SMILES),"activity change, negative = inhibition",Potency
Clc1ccccc1CN1CCN(c2ccccc2Cl)CC1,–,"inconclusive: 29.1 µM [activator, single point]"
CC1=CC(=Cc2sc3ccccc3[n+]2C)C=C(C)O1,–,"inconclusive: 7.3 µM [inhibitor, partial curve, poor fit]"
O=C(/C=C/c1c[nH]c2ccccc12)c1c(O)n(CCc2ccccc2)c(=O)[nH]c1=O,–,"inconclusive: 18.3 µM [activator, partial curve, poor fit]"
C[C@]12CC[C@H](O)CC1C(=O)CC1C2CC[C@@]2(C)C1CC[C@@H]2O (stereo not given in full),inactive: 9.62%,–
COc1cccc(C2(O)CCN(CC(=O)Nc3nc(C)cs3)CC2)c1,–,"inconclusive: 23.1 µM [inhibitor, single point]"
Cc1ncc(CN2CCCC(C(=O)c3cccc(OC(C)C)c3)C2)s1 (stereo not given),–,"inconclusive: 20.6 µM [inhibitor, single point]"
CN(c1ccccc1)S(=O)(=O)c1cccc(C(=O)N2CCN(c3ccccn3)CC2)c1,–,"inconclusive: 35.5 µM [inhibitor, single point]"
C/C(=N\NC(=O)c1ccccc1O)c1c(O)n(Cc2ccccc2)c(=O)[nH]c1=O,–,"inconclusive: 9.2 µM [activator, partial curve]"
COc1cc2c(c(OC)c1OC)-c1ccc(OC)c(=O)cc1C(NC(C)=O)CC2 (stereo not given),–,"inconclusive: 14.6 µM [activator, partial curve, poor fit]"
COc1cc2c3c(c1OC)Oc1ccc(cc1)C[C@H]1c4c(cc(OC)c(OC)c4Oc4ccc(cc4)C[C@@H]3N(C)CC2)CCN1C,inactive: 2.29%,–
C/C(=N\N=C(N)N)c1ccccc1,–,"inconclusive: 29.1 µM [activator, single point]"
N=C1c2ccccc2CN1NC(=O)c1ccccc1,–,"inconclusive: 29.1 µM [activator, single point]"
CCN1CCN(S(=O)(=O)c2cnc(Cl)c(Br)c2)CC1,inactive: -1.86%,–
CC(C)n1c(=O)c(C=Nc2ccc(F)cc2)c(O)n(Cc2ccco2)c1=O,–,"inconclusive: 8.2 µM [inhibitor, partial curve, poor fit]"
CCOP(=O)(CC(C(C)=O)C(O)c1ccccc1)OCC (stereo not given),–,"inconclusive: 18.4 µM [activator, partial curve, poor fit]"
COc1ccc(NC(=O)Nc2cccc3cccnc23)cc1,–,"inconclusive: 7.31 µM [activator, partial curve]"
CCCCn1c(O)c(C(=O)/C=C/c2c[nH]c3ccccc23)c(=O)[nH]c1=O,–,"inconclusive: 0.259 µM [inhibitor, single point]"
O=C1CN=C(c2ccccc2)c2c(sc3c2CCCC3)N1,inactive: -17.2%,–
Cc1ccc(N2C(=O)NC(=O)/C(=C\c3ccc(N4CCOCC4)cc3)C2=O)cc1,–,"inconclusive: 16.4 µM [activator, single point]"
CC(=Nc1ccccc1N)c1c(O)n(C)c(=O)[nH]c1=O,–,"inconclusive: 18.3 µM [activator, partial curve]"
CC(=O)OC1C=CC2[C@H]3Cc4ccc(O)c5c4[C@@]2(CCN3C)C1O5 (stereo not given in full),inactive: 12.6%,–
COc1ccc(-n2c(/C=C/c3ccc(O)c(O)c3)nc3ccccc3c2=O)cc1,–,active: 18.3 µM
